Results are given in words; binding and its absence hold for the method and conditions named. Binding seen in cells or lysates may run through a third protein. Here binding means that the protein was enriched with, or labelled near, the bait; the list need not be complete. Tags and fused reporters may be left off the sequences shown.
T1: Mrc1-YFP (S. cerevisiae) (UniProt P25588)
T1 sequence: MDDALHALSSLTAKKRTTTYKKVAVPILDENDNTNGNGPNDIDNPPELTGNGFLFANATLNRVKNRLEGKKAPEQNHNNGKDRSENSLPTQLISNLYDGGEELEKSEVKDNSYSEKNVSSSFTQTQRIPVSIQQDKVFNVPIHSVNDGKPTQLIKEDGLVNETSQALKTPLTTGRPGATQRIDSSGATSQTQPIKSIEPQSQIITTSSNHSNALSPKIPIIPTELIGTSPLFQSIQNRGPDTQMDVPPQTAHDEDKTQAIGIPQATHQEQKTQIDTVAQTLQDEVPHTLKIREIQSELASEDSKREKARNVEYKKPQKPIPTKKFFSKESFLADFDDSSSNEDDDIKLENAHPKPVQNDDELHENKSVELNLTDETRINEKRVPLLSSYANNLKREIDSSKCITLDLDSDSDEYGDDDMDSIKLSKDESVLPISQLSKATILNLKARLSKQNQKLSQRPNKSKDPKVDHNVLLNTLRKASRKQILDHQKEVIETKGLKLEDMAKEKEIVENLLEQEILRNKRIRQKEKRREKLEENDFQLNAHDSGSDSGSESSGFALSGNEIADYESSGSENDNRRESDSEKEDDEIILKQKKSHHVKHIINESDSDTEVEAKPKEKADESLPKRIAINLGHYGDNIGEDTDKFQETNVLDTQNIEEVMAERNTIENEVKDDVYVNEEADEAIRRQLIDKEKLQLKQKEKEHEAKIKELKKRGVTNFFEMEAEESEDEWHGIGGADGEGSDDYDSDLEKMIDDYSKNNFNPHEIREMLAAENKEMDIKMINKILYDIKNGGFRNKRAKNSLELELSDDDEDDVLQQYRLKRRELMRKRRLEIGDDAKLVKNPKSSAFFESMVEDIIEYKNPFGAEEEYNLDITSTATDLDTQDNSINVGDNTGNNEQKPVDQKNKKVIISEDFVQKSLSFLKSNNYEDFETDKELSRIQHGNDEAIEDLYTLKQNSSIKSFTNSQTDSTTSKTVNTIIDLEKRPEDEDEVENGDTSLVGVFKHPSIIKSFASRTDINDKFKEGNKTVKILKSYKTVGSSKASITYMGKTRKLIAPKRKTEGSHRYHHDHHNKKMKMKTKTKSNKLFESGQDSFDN


Target: T1, Mrc1-YFP (S. cerevisiae)
Assay: affinity purification with mass spectrometry

| Binder | binding |
| --- | --- |
| Mcm4 (protein, UniProt P30665 1-933) MSQQSSSPTKEDNNSSSPVVPNPDSVPPQLSSPALFYSSSSSQGDIYGRNNSQNLSQGEGNIRAAIGSSPLNFPSSSQRQNSDVFQSQGRQGRIRSSASASGRSRYHSDLRSDRALPTSSSSLGRNGQNRVHMRRNDIHTSDLSSPRRIVDFDTRSGVNTLDTSSSSAPPSEASEPLRIIWGTNVSIQECTTNFRNFLMSFKYKFRKILDEREEFINNTTDEELYYIKQLNEMRELGTSNLNLDARNLLAYKQTEDLYHQLLNYPQEVISIMDQTIKDCMVSLIVDNNLDYDLDEIETKFYKVRPYNVGSCKGMRELNPNDIDKLINLKGLVLRSTPVIPDMKVAFFKCNVCDHTMAVEIDRGVIQEPARCERIDCNEPNSMSLIHNRCSFADKQVIKLQETPDFVPDGQTPHSISLCVYDELVDSCRAGDRIEVTGTFRSIPIRANSRQRVLKSLYKTYVDVVHVKKVSDKRLDVDTSTIEQELMQNKVDHNEVEEVRQITDQDLAKIREVAAREDLYSLLARSIAPSIYELEDVKKGILLQLFGGTNKTFTKGGRYRGDINILLCGDPSTSKSQILQYVHKITPRGVYTSGKGSSAVGLTAYITRDVDTKQLVLESGALVLSDGGVCCIDEFDKMSDSTRSVLHEVMEQQTISIAKAGIITTLNARSSILASANPIGSRYNPNLPVTENIDLPPPLLSRFDLVYLVLDKVDEKNDRELAKHLTNLYLEDKPEHISQDDVLPVEFLTMYISYAKEHIHPIITEAAKTELVRAYVGMRKMGDDSRSDEKRITATTRQLESMIRLAEAHAKMKLKNVVELEDVQEAVRLIRSAIKDYATDPKTGKIDMNLVQTGKSVIQRKLQEDLSREIMNVLKDQASDSMSFNELIKQINEHSQDRVESSDIQEALSRLQQEDKVIVLGEGVRRSVRLNNRV | binds |
| Irr1 (protein, UniProt P40541 1-1150) MTAVRRSTRIRTKSQVIEEDYDDEQNTSAQHVESDKITAKTQHEEEEEQDTGESEESSSEDDYEDQDDDDYVDTATAKRKSRKRKPKSASNTSSKRQKKKPTSAQKSAVSHAPAYHRSKKDQDQYLEIAKDFQPTELFDILSTSEDVSIEELLREWLETYSENRDKFLQEFINLLLNCCGSVARVEDHDVHSNESSNETIGEIQLLFQRQKLHEFYLLISKENKKRKNFKMGPLYQNFAEFMTKLLEVANDLQLLYVESDEDDTQIVTGNLVLDLLTWLSSFSVCKIRCFRYISTLTLYLFQDYLTQQAVNLEKNYLAKLSKQLSLEEKKKRPNNKTLEKLESTIAETQGSKVVIDSIIDNIVKLCFVHRYKDVSDLIRSESMLHLSIWIKNYPEYFLKVTFLKYFGWLLSDNSVSVRLQVTKILPHLIIQNHNSKSTDNSAIRQVFERFKTKILEVAIRDVNLDVRIHSIQVLTEASSLGYLDDSEILIISSLMFDEEFDPFKTSSFNKRSKFLSTVAKFLARVIKEKFDEFIKTHEDLPKEVDGLEVGPVVQVGIFIKILNDSLIYHLKDCAEVDSRTKIRMLTQAAEFLSPYISTHLKTICNLLISDTESNELIQKLQNSANNNSDDEDVDDEELDITPLFPIDRNSTILYLNVFHGLCAGANNPKIQTKDSVKEIVLPLFYDLLNAASIESADILCPLLESFITFSLDDWISIGYETELKKITDKTIKAFMDSTIGNSKVDMKYDIFAKFIHHIHHFEKKELQEKFLNQIATLKIHLKKFLQEKMDPNNSRDDYKDLTCSLYELYINKLTILGRDYPIEVDEELLQLFLNNFVSRIPIMFQDFDDSTAQEINFKMLVLLATWNLEKWREIIEKVRDYENSISKDLRSVWKPIAAIIGRLNTLVISLAATNETFENINSLFYLKWSACTSLMDIIVAIKIFELKLPADATTWRYSMSEQFPFYLHDNASKVLLKIFLYLESLFAKQVDVQLERVADEDANLNDLPETGFFENIETEFLLFTVKLKGLMKLNILDERFASRVALNKEKLGPLFKKIVDDTIMENPEPNKKNIQKAKSNQTQREKAPLQPNSERETDHANTENNDPDIPMTIDLEPIEESSQNNSELAPIEEHPTVVDAIDNSDEITQD | binds |
